Test results reported in PubChem BioAssay AID1259415 (National Center for Advancing Translational Sciences (NCATS), 2018).
About 18,000 (4.4%) of roughly 410,000 compounds were called active. This list was built around the results that the source calls inconclusive (neither active nor inactive); the mix of calls is not that of the screen. No stated cut-off is given here; in the data, active means activity change below about -60%; inconclusive means no clear call, values can overlap the other calls; inactive means above about -39%.
On the % scale 0 is the no-effect control and ±100 the full control effect.

Assay: qHTS Assay for inhibitors of the human cytomegalovirus (HCMV)
Settings: HFF cells, HCMV-luciferase reporter, 72 h; at 57.5 µM; active compounds read low
Outline: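 Human foreskin fibroblasts infected with luciferase-reporter HCMV at MOI 1 PFU/cell, compounds at two doses. Luciferase measured 72 h post infection; normalized to buffer-only basal and Salinomycin (10uM) controls.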
In the case of Cc1cccc(-n2c(=O)cc(N3CCN(c4ccc(F)cc4)CC3)[nH]c2=O)c1, the activity change, negative = inhibition is reported as inconclusive: -57.1%.
For CC(=O)c1cc2cccc(OC3(C)CCN(Cc4ccc5ccccc5c4)C3)c2o1 (stereo unspecified), the activity change, negative = inhibition was inactive: 30.2%.
With CC1(C(=O)NCCOc2ccccc2Cl)CC1(Cl)Cl (stereo unspecified) the activity change, negative = inhibition was inconclusive: -44.1%.
For COc1ccc(C(=O)/C=C/C(=O)N(Cc2ccccc2OC)C(C(=O)NC2CCCCC2)c2ccncc2)c(O)c1 (stereo unspecified), the activity change, negative = inhibition was inconclusive: -45.8%.
In the case of C#CC(c1ccccc1)(c1ccccc1)n1ccnc1, the activity change, negative = inhibition is reported as inconclusive: -41.3%.
For Cc1ccc(CNC(=O)CCc2cn(Cc3ccc(C)cc3)c3ccccc23)cc1, the activity change, negative = inhibition was inactive: 5.71%.
In the case of Fc1ccccc1NC(=S)N1CCOCC1, the activity change, negative = inhibition is reported as inconclusive: -50.1%.
For O=C(c1ccc(S(=O)(=O)c2cccc(Cl)c2)c([N+](=O)[O-])c1)N1CCN(c2ccccn2)CC1, the activity change, negative = inhibition was active: -78%.
In the case of CCOC(=O)N1CCN(C(=O)C[C@@H]2C[C@@]3(C(=O)OCC)CCCC=C3N(CCC3=CCCCC3)C2=O)CC1, the activity change, negative = inhibition is reported as inactive: -0.759%.
In the case of CCc1ccccc1NC(=S)NCCSc1ccc(Cl)cc1, the activity change, negative = inhibition is reported as active: -87.7%.
With Cc1cc(C)c(S(=O)(=O)N2CCCC(C(=O)N3CCOCC3)C2)c(C)c1 (stereo unspecified) the activity change, negative = inhibition was inconclusive: -46.4%.
With CCOC(=O)c1cc(-c2ccccc2)n(CC2CC(c3ccc(OC)cc3)=NO2)n1 (stereo unspecified) the activity change, negative = inhibition was inactive: -4.25%.
With O=C(c1cc([N+](=O)[O-])ccc1N1CCOCC1)N1CCN(S(=O)(=O)c2cc(Cl)ccc2Cl)CC1 the activity change, negative = inhibition was inactive: 3.59%.
In the case of CCN(CCCNC(=O)c1ccc(Sc2ccc(Cl)cc2)c(NC(C)=O)c1)c1ccccc1, the activity change, negative = inhibition is reported as inactive: 54.5%.
With CC1CCC2[C@@H](C)C(=O)OC3O[C@]4(C)CCC1C32OO4 (stereo partly specified) the activity change, negative = inhibition was inactive: 16.2%.
For CCOC(=O)C1(Cc2ccccc2)CCN(Cc2cnc(N3CCOCC3)s2)CC1, the activity change, negative = inhibition was inconclusive: -54.6%.
With COCCN1CCCC(CNCc2cn(C)nc2-c2ccc(Oc3ccccc3)cc2)C1 (stereo unspecified) the activity change, negative = inhibition was inconclusive: -57.9%.
With O=C(c1ccc(F)cc1)N1CCN(c2cc(=O)[nH]nc2-c2ccccc2)CC1 the activity change, negative = inhibition was inactive: 15%.
For c1ccc(-c2ccccc2OCCN2CCCCC2)cc1, the activity change, negative = inhibition was inconclusive: -46.9%.
In the case of CCCCc1ccc(NC(=S)NCCc2ccc(F)cc2)cc1, the activity change, negative = inhibition is reported as inactive: 2.34%.
With CC1(C)C(=Cc2ccccc2)C(=O)c2ccccc21 the activity change, negative = inhibition was inconclusive: -41%.
For CCC1=Nc2cc(C(=O)NCCCOC)ccc2Sc2ccc(Br)cc21, the activity change, negative = inhibition was active: -87.4%.
With Cc1ccc(C)c(NC(=O)CN(C)C(=O)Cc2ccccc2)c1 the activity change, negative = inhibition was inactive: 16.8%.
With N/C(=N\OC(=O)COc1ccc(Br)cc1Cl)c1ccccn1 the activity change, negative = inhibition was inactive: 21.6%.
For CC(C)c1ccc(/C=C/C(=O)Nc2ccc(CN3CCOCC3)cc2)cc1, the activity change, negative = inhibition was inconclusive: -48.8%.
For Cc1cc(C)n2nc(C(=O)N/N=C/c3ccc(O)cc3)nc2n1, the activity change, negative = inhibition was inconclusive: -46.4%.
In the case of CCSc1nnc2c(n1)[nH]c1c(C)cccc12, the activity change, negative = inhibition is reported as inconclusive: -57.4%.
For O=C(O)c1cccc(NCc2ccncc2)c1, the activity change, negative = inhibition was active: -61.4%.
With Oc1ccc(-c2onc3ccc(Cl)cc23)cc1 the activity change, negative = inhibition was inconclusive: -52%.
In the case of Cc1cc(C)c(S(=O)(=O)NCc2cccnc2)c(C)c1, the activity change, negative = inhibition is reported as inactive: 49.7%.
For FC(F)(F)c1cc(Cc2nc3ccccc3n2C(CCc2ccccc2)c2nc3ccccc3[nH]2)cc(C(F)(F)F)c1 (stereo unspecified), the activity change, negative = inhibition was inactive: -16.5%.
For O=C(N[C@@H](Cc1ccccc1)C(=O)CCl)OCc1ccccc1, the activity change, negative = inhibition was active: -90%.
With COc1ccc(NC(=O)C(=O)NCCc2csc(-c3ccc(Cl)cc3)n2)cc1OC the activity change, negative = inhibition was inactive: 14.1%.
In the case of Cc1cc(Cl)nc(-n2nc(C)cc2C)n1, the activity change, negative = inhibition is reported as inconclusive: -57.5%.
For CCOC(CNC(=O)c1cccn2c(=O)c3c(C)c(C)sc3nc12)OCC, the activity change, negative = inhibition was inconclusive: -45.7%.
With Cc1ccc(C(=O)Nc2ccncc2)c(C)c1 the activity change, negative = inhibition was inconclusive: -46.7%.
For CCCCSc1cnn(-c2ccccc2)c(=O)c1SCCCC, the activity change, negative = inhibition was inconclusive: -54%.
With COc1ccc(-n2nc(C(=O)NCC(=O)N3CCCC3)c3ccccc3c2=O)cc1Cl the activity change, negative = inhibition was inconclusive: -48%.
With CC1(C(=O)Nc2ccc3ccccc3c2)CCC(=O)N1CC(F)(F)F (stereo unspecified) the activity change, negative = inhibition was inactive: 17.2%.
In the case of CC(C)(C)OC(=O)NCc1nc(N)n[nH]1, the activity change, negative = inhibition is reported as inconclusive: -43.1%.
In the case of COCC(=O)Nc1cc(Cl)c(OC)cc1OC, the activity change, negative = inhibition is reported as inconclusive: -42.3%.
For CCCc1nc2ccc(Br)cc2c(=O)n1-c1ccc([N+](=O)[O-])c(C(F)(F)F)c1, the activity change, negative = inhibition was active: -86.8%.
With O=C(COc1ccc([N+](=O)[O-])cc1Cl)N1CCOCC1 the activity change, negative = inhibition was inconclusive: -42.5%.
In the case of O=C(c1cccc(S(=O)(=O)N2CCc3ccccc32)c1)N1CCN(c2ccccc2)CC1, the activity change, negative = inhibition is reported as inconclusive: -44.2%.
For CCCCc1c(Cc2cccc(F)c2)ncn1CCc1ccccc1OC, the activity change, negative = inhibition was active: -65.9%.
With Cc1cc(Nc2ccccc2)nc(NCc2ccccc2)n1 the activity change, negative = inhibition was active: -66.5%.
In the case of Cc1ccc(O)c(NC(=O)CCCC(=O)O)c1, the activity change, negative = inhibition is reported as inconclusive: -40.2%.
In the case of O=C(/C=C/[C@H]1O[C@@H](n2cnc3c(NC(=O)c4ccccc4)ncnc32)[C@H](O)[C@@H]1O)NCc1ccc2c(c1)OCO2, the activity change, negative = inhibition is reported as inactive: -0.0745%.
For O=C1/C(=C/c2cccc(Br)c2)SC(=S)N1/N=C/c1cc([N+](=O)[O-])ccc1O, the activity change, negative = inhibition was inconclusive: -44.4%.
In the case of C=C1C(=O)O[C@H]2C[C@H]1[C@@H](OC(C)=O)C/C(C)=C/CC/C(C)=C\CC[C@]2(C)O, the activity change, negative = inhibition is reported as active: -103%.
For CN(C(=S)NC(=O)C12CC3CC(CC(C3)C1)C2)c1ccc(O)cc1, the activity change, negative = inhibition was active: -61%.
With Cc1csc(NC(=O)c2cc(-c3ccccc3)nc3ccccc23)n1 the activity change, negative = inhibition was inconclusive: -52.6%.
With O=C(COC(=O)c1ccccc1Br)Nc1ccccc1F the activity change, negative = inhibition was inconclusive: -40.1%.
With CC(C)(C)S(=O)N1Cc2cc(C(=O)NCC(F)(F)F)nc(-c3cccc(-c4cccc(F)c4)c3)c2[C@@H]1CCO (stereo partly specified) the activity change, negative = inhibition was active: -76.8%.
In the case of COc1ccc(-c2nnc(SCC(=O)c3[nH]c(C)c(C(C)=O)c3C)o2)cc1, the activity change, negative = inhibition is reported as inconclusive: -58.8%.
With O=C(O)CC/C(=N\Nc1ccc(S(=O)(=O)N2CCCC2)cc1[N+](=O)[O-])c1cccs1 the activity change, negative = inhibition was inactive: 3.03%.
